PubChem BioAssay AID1159579 | Peter MacCallum Cancer Centre, 2015
This is an unselected part of about 2,000 reagents tested. 549 of all reagents (27%) count as active. 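Some migration ratios are negative; siRNAs with too few cells are inactive whatever their migration ratio.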 Reagents against one gene are numbered here. Not stated in the record: the time to read-out.

- Aim: 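Find genes whose silencing alters migration of lymphatic endothelial cells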 (follow-up of hits)
- Cell system: human dermal lymphatic endothelial cells
- Reagents: single siRNA against human genes, 25 nM
- Read-out: 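High content images of wound closure area and cell nuclei counts, each the average of two wells, expressed against mock transfection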
- Direction: migration relative to mock: higher = more migration into the scratch; mean nuclei count: higher = more cells remaining
- Hit rule: 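Called active when the migration ratio is 0.6 or lower (impaired) or 1.3 or higher (accelerated), but inactive whenever the mean nuclei count falls under 3300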
- Calls: active = migration changed (impaired or accelerated); inactive = no migration change, or too few cells

gene symbol | reagent no. | migration relative to mock | migration and cell number class | mean nuclei count | call
CBR1 (carbonyl reductase 1) | 1 | 0.34 | migration reduced | 3512 | active
CBR1 (carbonyl reductase 1) | 2 | 0.64 | no change in migration or cell number | 6766 | inactive
CBR1 (carbonyl reductase 1) | 3 | 0.96 | no change in migration or cell number | 4814 | inactive
CBR1 (carbonyl reductase 1) | 4 | -0.46 | migration reduced | 3837 | active
TNFRSF1B (TNF receptor superfamily member 1B) | 1 | 0.8 | no change in migration or cell number | 5742 | inactive
TNFRSF1B (TNF receptor superfamily member 1B) | 2 | 0.14 | migration reduced | 3649 | active
TNFRSF1B (TNF receptor superfamily member 1B) | 3 | 0.69 | no change in migration or cell number | 4884 | inactive
TNFRSF1B (TNF receptor superfamily member 1B) | 4 | 0.6 | migration reduced | 5346 | active
PGAP1 (post-GPI attachment to proteins inositol deacylase 1) | 1 | 0.97 | no change in migration or cell number | 6699 | inactive
PGAP1 (post-GPI attachment to proteins inositol deacylase 1) | 2 | 1.08 | no change in migration or cell number | 6998 | inactive
PGAP1 (post-GPI attachment to proteins inositol deacylase 1) | 3 | -1.02 | too few cells; migration not scored | 2078 | inactive
PGAP1 (post-GPI attachment to proteins inositol deacylase 1) | 4 | 0.92 | no change in migration or cell number | 6390 | inactive
CTR9 (CTR9 component of Paf1/RNA polymerase II complex) | 1 | 0.82 | no change in migration or cell number | 6356 | inactive
CTR9 (CTR9 component of Paf1/RNA polymerase II complex) | 2 | 0.56 | migration reduced | 5627 | active
CTR9 (CTR9 component of Paf1/RNA polymerase II complex) | 3 | 0.78 | no change in migration or cell number | 6474 | inactive
CTR9 (CTR9 component of Paf1/RNA polymerase II complex) | 4 | 0.68 | no change in migration or cell number | 6039 | inactive
CRTC3 (CREB regulated transcription coactivator 3) | 1 | 0.66 | no change in migration or cell number | 5356 | inactive
CRTC3 (CREB regulated transcription coactivator 3) | 2 | -0.16 | migration reduced | 3477 | active
CRTC3 (CREB regulated transcription coactivator 3) | 3 | 0.81 | no change in migration or cell number | 4805 | inactive
CRTC3 (CREB regulated transcription coactivator 3) | 4 | 0.99 | no change in migration or cell number | 5274 | inactive
BBS7 (Bardet-Biedl syndrome 7) | 1 | 0.69 | no change in migration or cell number | 5415 | inactive
BBS7 (Bardet-Biedl syndrome 7) | 2 | 0.64 | no change in migration or cell number | 6002 | inactive
BBS7 (Bardet-Biedl syndrome 7) | 3 | 0.9 | no change in migration or cell number | 5278 | inactive
BBS7 (Bardet-Biedl syndrome 7) | 4 | 0.97 | no change in migration or cell number | 5955 | inactive

Just “mean nuclei count”, for 6 of the entries above:
CBR1 (carbonyl reductase 1) #3 = 4814
CBR1 (carbonyl reductase 1) #4 = 3837
TNFRSF1B (TNF receptor superfamily member 1B) #1 = 5742
TNFRSF1B (TNF receptor superfamily member 1B) #2 = 3649
TNFRSF1B (TNF receptor superfamily member 1B) #3 = 4884
TNFRSF1B (TNF receptor superfamily member 1B) #4 = 5346

The list goes on:
gene symbol | reagent no. | migration relative to mock | migration and cell number class | mean nuclei count | call
GNAS (GNAS complex locus) | 1 | 0.06 | migration reduced | 3842 | active
GNAS (GNAS complex locus) | 2 | 0 | migration reduced | 4314 | active
GNAS (GNAS complex locus) | 3 | 0.67 | no change in migration or cell number | 4448 | inactive
GNAS (GNAS complex locus) | 4 | 0.2 | migration reduced | 5409 | active
HBE1 (hemoglobin subunit epsilon 1) | 1 | 1.02 | no change in migration or cell number | 6816 | inactive
HBE1 (hemoglobin subunit epsilon 1) | 2 | 0.81 | no change in migration or cell number | 6160 | inactive
HBE1 (hemoglobin subunit epsilon 1) | 3 | 0.97 | no change in migration or cell number | 7624 | inactive
HBE1 (hemoglobin subunit epsilon 1) | 4 | -1.96 | too few cells; migration not scored | 2398 | inactive
LIMK1 (LIM domain kinase 1) | 1 | 1.06 | no change in migration or cell number | 5496 | inactive
LIMK1 (LIM domain kinase 1) | 2 | 0.02 | migration reduced | 3868 | active
LIMK1 (LIM domain kinase 1) | 3 | 0.96 | no change in migration or cell number | 5784 | inactive
LIMK1 (LIM domain kinase 1) | 4 | 0.6 | migration reduced | 5562 | active
ACOT13 (acyl-CoA thioesterase 13) | 1 | 0.76 | no change in migration or cell number | 5619 | inactive
ACOT13 (acyl-CoA thioesterase 13) | 2 | 1.1 | no change in migration or cell number | 6680 | inactive
ACOT13 (acyl-CoA thioesterase 13) | 3 | 0.79 | no change in migration or cell number | 7444 | inactive
ACOT13 (acyl-CoA thioesterase 13) | 4 | 0.58 | migration reduced | 6788 | active
PAQR5 (progestin and adipoQ receptor family member 5) | 1 | 0.78 | no change in migration or cell number | 6336 | inactive
PAQR5 (progestin and adipoQ receptor family member 5) | 2 | 0.46 | migration reduced | 4680 | active
PAQR5 (progestin and adipoQ receptor family member 5) | 3 | 1.06 | no change in migration or cell number | 4815 | inactive
PAQR5 (progestin and adipoQ receptor family member 5) | 4 | 0.64 | no change in migration or cell number | 4539 | inactive
FGF4 (fibroblast growth factor 4) | 1 | 1.54 | migration increased | 5156 | active
FGF4 (fibroblast growth factor 4) | 2 | 0.78 | no change in migration or cell number | 4668 | inactive
FGF4 (fibroblast growth factor 4) | 3 | 0.79 | no change in migration or cell number | 4962 | inactive
FGF4 (fibroblast growth factor 4) | 4 | 1.04 | no change in migration or cell number | 5242 | inactive
NKD1 (NKD inhibitor of Wnt signaling pathway 1) | 1 | 0.68 | no change in migration or cell number | 6475 | inactive
NKD1 (NKD inhibitor of Wnt signaling pathway 1) | 2 | 0.92 | no change in migration or cell number | 6401 | inactive
NKD1 (NKD inhibitor of Wnt signaling pathway 1) | 3 | 0.98 | no change in migration or cell number | 6624 | inactive
NKD1 (NKD inhibitor of Wnt signaling pathway 1) | 4 | 0.95 | no change in migration or cell number | 5910 | inactive
ALAS2 (5'-aminolevulinate synthase 2) | 1 | 0.68 | no change in migration or cell number | 5559 | inactive
ALAS2 (5'-aminolevulinate synthase 2) | 2 | 0.51 | migration reduced | 5518 | active
ALAS2 (5'-aminolevulinate synthase 2) | 3 | 0.86 | no change in migration or cell number | 6628 | inactive
ALAS2 (5'-aminolevulinate synthase 2) | 4 | 0.75 | no change in migration or cell number | 7228 | inactive
TCEAL6 (transcription elongation factor A like 6) | 1 | 0.92 | no change in migration or cell number | 5888 | inactive
TCEAL6 (transcription elongation factor A like 6) | 2 | 1.18 | no change in migration or cell number | 6140 | inactive
TCEAL6 (transcription elongation factor A like 6) | 3 | 0.92 | no change in migration or cell number | 5010 | inactive
TCEAL6 (transcription elongation factor A like 6) | 4 | 0.9 | no change in migration or cell number | 5639 | inactive
CCL23 (C-C motif chemokine ligand 23) | 1 | 1.16 | no change in migration or cell number | 5526 | inactive
CCL23 (C-C motif chemokine ligand 23) | 2 | 1.14 | no change in migration or cell number | 5366 | inactive
CCL23 (C-C motif chemokine ligand 23) | 3 | 1.12 | no change in migration or cell number | 5751 | inactive
CCL23 (C-C motif chemokine ligand 23) | 4 | -0.1 | migration reduced | 4304 | active
TMEM126A (transmembrane protein 126A) | 1 | 0.54 | migration reduced | 5054 | active
TMEM126A (transmembrane protein 126A) | 2 | 0.93 | no change in migration or cell number | 6184 | inactive
TMEM126A (transmembrane protein 126A) | 3 | 0.74 | no change in migration or cell number | 4200 | inactive
TMEM126A (transmembrane protein 126A) | 4 | 0.9 | no change in migration or cell number | 6064 | inactive
